The whole screen tested about 410,000 compounds, of which about 18,000 (4.4%) were called active. The inconclusive results got no clear call from the source; some entries with a clear call stand among them for comparison. Cut-off read from the data, not from the text of the source: active = activity change below about -60%; inconclusive = no clear call, values can overlap the other calls; inactive = above about -39%.
test: qHTS Assay for inhibitors of the human cytomegalovirus (HCMV); details: HFF cells, HCMV-luciferase reporter, 72 h; at 57.5 µM; hits give low values
From the text: NCGC Assay Overview: Infection with human cytomegalovirus (HCMV) continues to pose significant threats for pregnant women and immunocompromised hosts. HCMV causes serious morbidity and mortality in transplant recipients, and congenital HCMV is the leading infectious cause of mental retardation and deafness in children. In the 1990s, the annual costs associated with the disease burden of congenital CMV were estimated at around $2 billion. A HCMV vaccine is not available yet and HCMV therapies result in intolerable side effects and emergence of drug resistant viruses. […] Towards this goal we have developed and characterized a luciferase HCMV reporter that was initially used in 96 well plates and then optimized to 1536-well plates for utilization in screening of the MLSMR collection, the NGCG diversity collection and the NCGC Pharmaceutical Collection of approved and investigational drugs.
NCGC Assay Protocol Summary:
This is a cell-based assay for HCMV inhibition in HFFs cells. The screening used 2 compound doses and the HCMV-luciferase at MOI of 1 PFU/cell. Cells were treated and infected with HCMV. At 72 h post infection cell lysates were collected and luciferase activity was determined using the Glomax-Multi + Detection System (Promega, Madison, WI). Data were normalized to the controls for basal activity (buffer only) and known HCMV inhibitors Salinmoycin.
1536-well assay protocol for the assay:
(1) Add 3 ul CMV/HFF cell culture. 1000 cells/well in DMEM nirmal media.
(2) Incubate 16 hr at 37C.
(3) Add 23 nl control compound, 10uM of Salinomycin.
(4) Add 23 nl compounds in DMSO solution.
(5) Add 3 ul CMV suspension. Final 1 puf/ul, Virus stock 2000pfu/ul
(6) Incubate 72 hrs at 37C.
(7) Add 4 ul OneGlo Luc Reagent.
(8) Incubate 5 min at room temperature.
% is set by controls: 0 for no effect and ±100 for the full control effect.

Compound | activity change, negative = inhibition
COc1ccc(NC(=O)C2Cc3c(-c4ccc(Cl)cc4)ccnc3O2)cn1 (stereo not drawn) | active: -81.9%
COc1ccc(NCC(=O)Nc2ccc(Br)cc2F)c(OC)c1 | inactive: -27.8%
O=C(NC1CCCCC1)C(c1cccnc1)N(C(=O)CCl)c1cccc(Cl)c1 (stereo not drawn) | active: -104%
CC12CC3CC(C)(C1)CC(C(=O)Nc1nncs1)(C3)C2 | inactive: -17.3%
Cc1noc(C)c1S(=O)(=O)Nc1ccc2c(c1)C(=O)N([C@H](C)CO)C[C@H](C)[C@@H](CN(C)C(=O)NC(C)C)O2 | inactive: 26.1%
COc1ccc2c(c1O)-c1c(OC)c(OC)cc3c1[C@H](C2)N(C)CC3 | active: -62.6%
COCCNC(=O)/C(C#N)=C/c1c(N2CCCCCC2)nc2ccccn2c1=O | inconclusive: -50.7%
O=C(CN1C(=O)NC(Cc2c[nH]c3ccccc23)C1=O)Nc1cccc(S(=O)(=O)N2CCCCCC2)c1 (stereo not drawn) | inconclusive: -52.6%
O=C(/C=C/c1ccc(Cl)c([N+](=O)[O-])c1)Nc1ccc(N2CCCC2)cc1 | inconclusive: -53.7%
O=C(Nc1ccc(S(=O)(=O)N2CCCCC2)cc1)C1CCN(C(=O)c2ccco2)CC1 | inconclusive: -54.4%
COc1ccc(C(c2nnnn2C(C)(C)C)N2CCN(C(=O)c3ccco3)CC2)cc1 (stereo not drawn) | inconclusive: -59%
COc1ccc(/C=N/NC(=S)N[C@H]2CC3CCC2C3)cc1 (stereo partly drawn) | inconclusive: -40.5%
CN=c1sc2ccccc2n1CC(O)COc1ccccc1 (stereo not drawn) | inactive: -28.1%
O=C(CCSc1ccc(Br)cc1)Nc1cccnc1 | inconclusive: -42.6%
O=C(CC1CCCC1)Nc1ccc(Cl)c(S(=O)(=O)N2CCOCC2)c1 | inconclusive: -50%
O=C(Cc1cccc2ccccc12)NN1C(=O)C2C(C1=O)C1C=CC2C12CC2 (stereo not drawn) | inactive: -8.95%
Cc1csc(/N=C/c2ccc([N+](=O)[O-])cc2)n1 | inactive: 22.5%
COc1ccccc1/C=C/C(=O)NCC(=O)N/N=C/c1ccc(C)o1 | inconclusive: -49.4%
COc1ccc(NC(=O)Cc2ccc(Cl)cc2)cc1S(=O)(=O)N1CCCCC1 | inconclusive: -54%
Cc1ccc(S(=O)(=O)NCc2ccccc2)cc1C(=O)NCC(=O)Nc1c(C)cccc1C | inconclusive: -42.2%
CC(=O)Nc1ccc(/C=N/Nc2nc3ccccc3s2)cc1 | inactive: 88.2%
COc1ccc(N2CCN(C(=O)c3ccc(C)c(NC(=O)c4nsc5ccccc45)c3)CC2)cc1 | inactive: 43.9%
O=C(N/N=C/c1ccc(Cl)cc1)c1cc(-c2cccnc2)nc2ccccc12 | inconclusive: -49.2%

As entered above:
Value for O=C(Cc1cccc2ccccc12)NN1C(=O)C2C(C1=O)C1C=CC2C12CC2 (stereo not drawn) under activity change, negative = inhibition: inactive: -8.95%
Value for COc1ccc2c(c1O)-c1c(OC)c(OC)cc3c1[C@H](C2)N(C)CC3 under activity change, negative = inhibition: active: -62.6%

Source: PubChem BioAssay AID1259415 (National Center for Advancing Translational Sciences (NCATS), 2018)
